Assay results taken from article PMC10213515.
Changes are numbered by the printed parent chain. These are yes or no findings as the source states them, for the method shown. Some results given as binding are weak or reduced against the parent protein; the word gives no strength.

Amino acid sequences for entries named in this document (tags omitted).
UniProt P0A9A6: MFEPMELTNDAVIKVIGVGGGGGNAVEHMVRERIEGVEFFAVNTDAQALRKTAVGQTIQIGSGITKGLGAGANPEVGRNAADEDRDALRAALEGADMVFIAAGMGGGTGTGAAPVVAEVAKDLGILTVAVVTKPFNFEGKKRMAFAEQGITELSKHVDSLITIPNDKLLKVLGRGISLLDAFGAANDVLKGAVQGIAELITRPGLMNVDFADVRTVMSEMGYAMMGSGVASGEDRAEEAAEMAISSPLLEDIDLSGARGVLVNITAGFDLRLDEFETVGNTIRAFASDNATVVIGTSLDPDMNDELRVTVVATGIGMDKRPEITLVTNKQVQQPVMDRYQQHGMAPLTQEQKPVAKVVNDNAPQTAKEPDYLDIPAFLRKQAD

Legend:
Experiment in all cases: co-sedimentation; phospholipid recruitment assay: FtsZ (3 uM) with GTP (2 mM) added to FtsA wild type or mutant (2.5 uM) pre-assembled with SUVs (250 ug/ml) and ATP (4 mM); 10 min at 30 C; vesicles collected at 21,000 x g for 15 min; SDS-PAGE, coomassie, densitometry; both purified
FtsA(Y375A) (E. coli) = target: T1, FtsA(Y375A) (E. coli) (UniProt P0ABH0)
T1 sequence: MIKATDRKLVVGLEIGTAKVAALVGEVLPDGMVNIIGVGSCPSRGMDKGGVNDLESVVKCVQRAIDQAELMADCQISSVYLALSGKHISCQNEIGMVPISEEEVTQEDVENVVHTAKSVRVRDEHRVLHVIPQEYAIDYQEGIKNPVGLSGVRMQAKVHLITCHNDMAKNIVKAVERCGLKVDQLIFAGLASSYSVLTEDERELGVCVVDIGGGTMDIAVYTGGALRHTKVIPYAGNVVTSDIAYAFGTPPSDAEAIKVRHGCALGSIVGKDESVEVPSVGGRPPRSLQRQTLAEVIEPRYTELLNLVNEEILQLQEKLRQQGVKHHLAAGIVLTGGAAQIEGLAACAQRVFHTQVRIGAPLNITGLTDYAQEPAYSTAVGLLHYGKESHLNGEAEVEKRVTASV

FtsA(S84L) (E. coli) = target: T2, FtsA(S84L) (E. coli) (UniProt P0ABH0)
T2 sequence: T1 sequence with S84L, A375Y

FtsA(E14R) (E. coli) = target: T3, FtsA(E14R) (E. coli) (UniProt P0ABH0)
T3 sequence: T1 sequence with E14R, A375Y

FtsA(A188V) (E. coli) = target: T4, FtsA(A188V) (E. coli) (UniProt P0ABH0)
T4 sequence: T1 sequence with A188V, A375Y

Measured: binding

FtsZ (from UniProt P0A9A6 1-383)
binds: all assays above
